Data reported in article PMC7674511.

Molecular target: GST-AMFRΔTM
Assay: pull-down; in vitro GST pulldown: recombinant GST-AMFRΔTM with recombinant His-MYC-TXN (Figure S3C); both purified

binding: binds
B1: His-MYC-TXN (protein, UniProt P10599 1-105)
chain: MVKQIESKTAFQEALDAAGDKLVVVDFSATWCGPCKMIKPFFHSLSEKYSNVIFLEVDVDDCQDVASECEVKCMPTFQFFKKGQKVGEFSGANKEKLEATINELV

These are yes or no findings as the source states them, for the method shown. Binding can be weak; no strength is given. Sequences can lack the tags named with a protein.
